Results are given in words; binding and its absence hold for the method and conditions named. Some binding calls cover weakened binding; strength is not graded here. Blank lines part the entries; values can stand above or below the binder they belong to.
Target: Nectin-4 on T-47D cells (human ductal breast carcinoma cells) (human) (UniProt Q96NY8)
Assay: flow cytometry (FACS) on T-47D cells, PE-labeled anti-human Fc secondary antibody

Amino acid sequences for entries named in this document (tags omitted). Residues count along the entry.
UniProt Q96NY8, residues 32-510: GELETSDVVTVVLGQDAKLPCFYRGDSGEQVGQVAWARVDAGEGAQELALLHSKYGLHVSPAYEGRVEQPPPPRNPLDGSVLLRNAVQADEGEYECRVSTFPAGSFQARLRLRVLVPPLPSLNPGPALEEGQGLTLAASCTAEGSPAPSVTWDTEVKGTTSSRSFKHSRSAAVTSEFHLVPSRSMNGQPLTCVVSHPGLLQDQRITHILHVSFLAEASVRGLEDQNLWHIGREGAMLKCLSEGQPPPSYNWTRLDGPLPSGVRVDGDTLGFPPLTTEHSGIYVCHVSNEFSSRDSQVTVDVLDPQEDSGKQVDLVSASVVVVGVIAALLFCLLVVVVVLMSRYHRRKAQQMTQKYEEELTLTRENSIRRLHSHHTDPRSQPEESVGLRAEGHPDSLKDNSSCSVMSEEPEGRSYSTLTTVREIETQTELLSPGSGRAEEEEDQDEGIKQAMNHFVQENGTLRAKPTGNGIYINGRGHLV

binding: binds
B1: anti-Nectin-4 antibody ASG-AM (antibody, human IgG1, kappa, V domains shown)
VH: EVQLVESGGGLVQPGGSLRLSCAASGFTFSSYNMNWVRQAPGKGLEWVSYISSSSSTIYYADSVKGRFTISRDNAKNSLSLQMNSLRDEDTAVYYCARAYYYGMDVWGQGTLVTVSS
VL: DIQMTQSPSSVSASVGDRVTITCRASQGISGWLAWYQQKPGKAPKFLIYAASTLQSGVPSRFSGSGSGTDFTLTISSLQPEDFATYYCQQAGPGWVFGQGTKVEIKR
notes: Expressed in HEK293F cells

binding: binds
B2: reference antibody ASG-22 (antibody, human IgG1, kappa, V domains shown)
VH: B1 VH
VL: DIQMTQSPSSVSASVGDRVTITCRASQGISGWLAWYQQKPGKAPKFLIYAASTLQSGVPSRFSGSGSGTDFTLTISSLQPEDFATYYCQQANSFPPTFGGGTKVEIKR
notes: Expressed in HEK293F cells

From US20260008848A1, “ANTI-NECTIN-4 ANTIBODY, AND ANTIBODY-DRUG CONJUGATE AND USE THEREOF” (Bio-Thera Solutions, Ltd., priority 2022, published 2026)
